Data taken from US10125184B2, “Apolipoprotein E polypeptides and their use” (priority 2011, dated 2018).
Not every detail of the peptide structures is certain; ends, links or a residue may be inferred. Ends that are not written are not given here.

Columns and labels:
HCVcc-luc = assay: Infectivity of peptide-treated HCVcc after removing the peptide by ultracentrifugation; type: cell-based, Hepatitis C virus; settings: 20 μg/ml, one hour at room temperature, peptide removed by ultracentrifugation
JFH1 HCVcc = assay: HCVcc binding assay (real-time PCR of vRNA, Huh7.5.1 cells); type: cell-based, Hepatitis C virus; settings: 2.7 μM, 2 hours at 4° C., relative to scrambled peptide
Experimental: FIGS. 5A-5D. hEP inhibits HCV entry at the attachment step. (A) HCVcc-luc was first mixed with either scrambled peptide or hEP-2 (20 μg/ml) for one hour at room temperature. In Group 1, mixed virus was directly added to Huh7.5.1 cells, whereas in Group 2, virus was purified through ultracentrifuge at 28,000×g for 4 hours in order to remove peptide, and then used to infect Huh7.5.1 cells. **p<0.005. (B) The kinetics of hEP- and bafilomycin A1-mediated inhibition were determined by time-of-addition assays, as described in the examples section. Fitted lines represent sigmoidal time-dependent curves (mean of n=3; error bars, s.d.). […] Heparin (200 μg/ml), anti-CD81 monoclonal antibody (5 μg/ml), hEP (20 μg/ml), or bafilomycin A1 (10 nM) were present in the media either continuously, during the 4° C. incubation only (attachment), or during the 37° C. incubation phase only (post-attachment). % Inhibition was calculated as 100-percent infection relative to control infections containing DMSO or an isotype antibody control containing 0.01% sodium azide (for anti-CD81 only) (mean of n=3; error bars, s.d.). (D) The effects of hEP (2.7 μM) or scrambled peptide on HCV binding were determined as described in the examples section. Results were calculated as relative RNA copies with numbers obtained from the scrambled peptide treated wells set to 100 (mean of n=3; error bars, s.d.). **p<0.005. […]

HCVser = assay: Binding of patient serum-derived HCV to primary human hepatocytes; type: cell-based, Hepatitis C virus; settings: 2.7 μM, five patient sera, vRNA copies normalized to RPS11
JFH1 = assay: Binding of JFH1 to primary human hepatocytes; type: cell-based, Hepatitis C virus; settings: 2.7 μM
JFH-1 HCVcc-Luc = settings: Huh7.5.1 cells
Experimental: FIGS. 1A-1C. […] (A) Schematic illustration of apoE protein domains and the amino acid sequences of hEP and mEP peptides. The amino acid sequences shown are hEP-1 (SEQ ID NO: 6) and mEP (SEQ ID NO: 20). […] Huh7.5.1 cells were infected with JFH-1 HCVcc-Luc (MOI˜0.5) in the presence of hEP or mEP for 2 hours. After removal of virus and peptides, cells were further incubated for 48 hours prior to luciferase assay. Data are presented as % inhibition relative to control infections in which cells were treated with DMSO (0%). Results are expressed as mean±standard deviation (s.d.) (n=3). (C). Huh7.5.1 cells were treated with hEP or DMSO at indicated doses for 48 hours. The effect of hEP on cell viability was measured by a CellTiter Glo assay kit.
FIGS. 7A-7E. Mapping the anti-viral activity of hEP. In (A) and (B), HCVcc-luc was first mixed with indicated peptides (20 μg/ml, 2.7 μM) and then incubated with Huh7.5.1 cells for two hours at 37° C. to initiate infection. After additional 48 hours incubation, luciferase activity was measured. Results are presented as fold of inhibition relative to infections containing DMSO (n=5, mean±sd). (C) 20 μg of hEP-2 or hEP-2/ΔCys were resuspended in PBS and kept at room temperature for 30 minutes. Peptides were then mixed with 2×SDS-sample buffer without DTT and boiled for 5 minutes. […]

Sequence | Direct inactivation of virus (HCVcc-luc) | Amount of viral RNA (vRNA) bound to cells (JFH1 HCVcc) | Binding of HCVser to PHHs (HCVser) | Binding of JFH1 to PHHs (JFH1) | Inhibition of HCVcc infection/entry (in words) (JFH-1 HCVcc-Luc)
CEELRVRLASHLRKLRKRLLRDADDLQKRLAVY [hEP-2] | does not directly inactivate virus | The same observation was made | markedly reduced | significantly inhibited | –
VRLASHLRKLRKRLLRDADDLIRLQAEAFQARLKSWFEPLV [hEP-6] | – | – | – | – | lost all the inhibitory activities
